Data on one substance can be found in article PMC4359025.

These are yes or no findings as the source states them, for the method shown. In cells and extracts the contact can be indirect. Binding can be weak; no strength is given. Sequences can lack the tags named with a protein.

The target in this experiment is T1, Par-6 fused with Flag epitope (Par6::Flag) (Drosophila (fly)) (UniProt O97111).
T1 sequence: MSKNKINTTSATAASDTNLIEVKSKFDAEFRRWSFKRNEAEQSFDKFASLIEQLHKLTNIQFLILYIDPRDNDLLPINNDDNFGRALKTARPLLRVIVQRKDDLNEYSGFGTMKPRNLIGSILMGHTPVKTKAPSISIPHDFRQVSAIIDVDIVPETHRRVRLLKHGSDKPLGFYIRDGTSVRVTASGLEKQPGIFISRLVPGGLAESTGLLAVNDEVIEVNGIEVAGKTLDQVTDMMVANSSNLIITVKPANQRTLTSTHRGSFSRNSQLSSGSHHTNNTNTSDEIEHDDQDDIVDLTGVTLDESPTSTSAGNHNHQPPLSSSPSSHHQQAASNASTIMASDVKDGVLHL
The experiment in a line: co-IP; S2 cell lysates transfected with control DNA, HA::Pbl, or HA::Pbl and Par6::FLAG; 5 ug anti-HA or anti-Flag antibody, Protein A/G magnetic beads; western blot with anti-Flag, anti-aPKC or anti-HA.

For “Pbl fused with HA epitope (Pbl::HA) (Drosophila (fly))”, the binding result is “binds”.
